Measurements: paper PMC10443802 (JCI Insight, 2023)
Where a name gives a salt, the structure may show the parent alone.

Test system: OATP1B2
Assay: Untargeted metabolomics of plasma and DRG, WT vs OATP1B2-deficient mice
Format: in vivo, mouse
Details: untargeted metabolomics, WT vs OATP1B2-deficient mice
[1] = supplement sheet "Figure 5B" (volcano plot)
[2] = Figure 5B source data (volcano plot), log2 fold change of metabolite level

Row | Structure (SMILES) | Log2FoldChange [1] | Log2FoldChange (sheet "Figure 5C") | other results
1 | CCCCC/C=C\C/C=C\CCCCCCCC(=O)O[C@H](COC(=O)CCCCCCCCCCCCCCCCC)COP(=O)(O)OCCN [1-stearoyl-2-linoleoyl-GPE (18:0/18:2)*] |  |  | Log2FoldChange (supplement sheet "Figure 5B"): 0.08406
2 | CCCCC/C=C\C/C=C\CCCCCCCC(=O)OC(COC(=O)CCCCCCCCCCCCCCCCC)COP(=O)(O)OC1C(O)C(O)C(O)C(O)C1O (stereo not shown) [1-stearoyl-2-linoleoyl-GPI (18:0/18:2)] | 0.3334 |  | 
3 | CCCCCCCC/C=C\CCCCCCCC(=O)O[C@H](COC(=O)CCCCCCCCCCCCCCCCC)COP(=O)([O-])OCC[N+](C)(C)C [1-stearoyl-2-oleoyl-GPC (18:0/18:1)] | 0.263 | -0.1361 | 
4 | CCCCCCCC/C=C\CCCCCCCC(=O)O[C@H](COC(=O)CCCCCCCCCCCCCCCCC)COP(=O)(O)OCCN [1-stearoyl-2-oleoyl-GPE (18:0/18:1)] | 0.275 | -0.3771 | 
5 | CCCCCCCCC=CCCCCCCCC(=O)OC(COC(=O)CCCCCCCCCCCCCCCCC)COP(=O)(O)OCC(O)CO (stereo not shown) [1-stearoyl-2-oleoyl-GPG (18:0/18:1)] | 0.585 |  | 
6 | CCCCCCCC/C=C\CCCCCCCC(=O)OC(COC(=O)CCCCCCCCCCCCCCCCC)COP(=O)(O)OC1C(O)C(O)C(O)C(O)C1O (stereo not shown) [1-stearoyl-2-oleoyl-GPI (18:0/18:1)*] | 0.2388 |  | 
7 | CCCCCCCC/C=C\CCCCCCCC(=O)OC(COC(=O)CCCCCCCCCCCCCCCCC)COP(=O)(O)OCC(N)C(=O)O (stereo not shown) [1-stearoyl-2-oleoyl-GPS (18:0/18:1)] |  | -0.5353 | 
8 | CCCCCCCCCCCCCCCCCC(=O)OC[C@@H](O)COP(=O)(O)OCCN [1-stearoyl-GPE (18:0)] | 0.4222 |  | 
9 | CCCCCCCCCCCCCCCCCC(=O)OC[C@@H](O)COP(=O)(O)OC[C@@H](O)CO [1-stearoyl-GPG (18:0)] | 2.057 | 0.08406 | 
10 | CCCCCCCCCCCCCCCCCC(=O)OC[C@@H](O)COP(=O)(O)OC1[C@H](O)[C@H](O)C(O)[C@H](O)[C@H]1O (stereo partly shown) [1-stearoyl-GPI (18:0)] |  | 0.08406 | Log2FoldChange [2]: -0.2176
11 | CCCCCCCCCCCCCCCCCC(=O)OC[C@@H](O)COP(=O)(O)OC[C@H](N)C(=O)O [1-stearoyl-GPS (18:0)*] |  | -0.1681 | 
12 | CO[C@@H]1[C@H](O)[C@@H](CO)O[C@H]1n1ccc(N)nc1=O [2'-O-methylcytidine] |  | 0.189 | Log2FoldChange (supplement sheet "Figure 5B"): 0.1375
13 | CO[C@@H]1[C@H](O)[C@@H](CO)O[C@H]1n1ccc(=O)[nH]c1=O [2'-O-methyluridine] |  | 0.433 | Log2FoldChange [2]: -0.2176
14 | Nc1ncnc2c1ncn2C1CC(O)C(CO)O1 (stereo not shown) [2'-deoxyadenosine] |  | 0.2016 | 
15 | Nc1ccn([C@H]2C[C@H](O)[C@@H](CO)O2)c(=O)n1 [2'-deoxycytidine] |  |  | Log2FoldChange [2]: -0.3219
16 | O=c1[nH]cnc2c1ncn2[C@H]1C[C@H](O)[C@@H](CO)O1 [2'-deoxyinosine] |  | -0.1361 | 
17 | O=c1ccn([C@H]2C[C@H](O)[C@@H](CO)O2)c(=O)[nH]1 [2'-deoxyuridine] |  | -0.1361 | Log2FoldChange [2]: -0.1681
18 | CC(O)C(C)(O)C(=O)O (stereo not shown) [2,3-dihydroxy-2-methylbutyrate] |  |  | Log2FoldChange [2]: -0.2863
19 | CC(C)(O)C(O)C(=O)O (stereo not shown) [2,3-dihydroxyisovalerate] | 0.3561 | -0.1361 | 
20 | CC(C)(C)c1ccc(O)c(C(C)(C)C)c1 [2,4-di-tert-butylphenol] |  |  | Log2FoldChange (supplement sheet "Figure 5B"): 0.05658
21 | O=C(O)c1c(O)cccc1O [2,6-dihydroxybenzoic acid] | 0.3785 | 0.3674 | 
22 | O=S(=O)(O)Oc1cccc2ccc(O)nc12 [2,8-quinolinediol sulfate] | 0.8319 |  | 
23 | CC(C(=O)O)c1ccc(O)cc1 (stereo not shown) [2-(4-hydroxyphenyl)propionate] | 0.3785 |  | 
24 | COC1=C(O)[C@@H]([C@@H](O)CO)OC1=O [2-O-methylascorbic acid] |  | 0 | 
25 | CC(=O)Nc1ccccc1OS(=O)(=O)O [2-acetamidophenol sulfate] | 0.2265 |  | 
